Test system: NMDA receptor
Assay: [3H]MK-801 binding assay, NMDA receptors in guinea pig brain membranes
Experimental: Hartley guinea pigs were sacrificed, and their brains were quickly removed and weighed. The brains then were homogenized in 50 mM Tris HCl buffer, pH 7.7, using a Polytron homogenizer. The homogenate was centrifuged at 40,000×g for 15 min, rehomogenized, and centrifuged again. The final pellet was resuspended in Tris-HCl, pH 7.7, at a final concentration of 6.67 mg original wet weight of tissue/ml. […] The samples were then filtered through glass fiber filters on a Tomtec cell harvester. The filters were washed 3 times with 3 ml of cold buffer. Filters were dried overnight and counted next day on a Wallac Betaplate Reader.
The binding experiments were conducted as follows. […] For each compound, graphs were prepared containing individual competition curves obtained for that compound. IC50 values and Hill coefficients were calculated using the program Prism. Ki values were calculated using the Chang Prusoff transformation: Ki=IC50/(1+L/Kd)
where L is radioligand concentration and Kd is the binding affinity of the radioligand, as determined previously by saturation analysis. […] In each experiment, one standard compound was simultaneously run on each 96 well plate.

[1] = guinea pig brain membrane preparation (Table 29)
[2] = standard compounds at the NMDA site (Table 27)

Row | Compound | Hill Slope [1] | Hill Slope [2]
1 | 3-amino-triamantane [MDT-48] | 1.27 ± 0.20 | 
2 | NC12CC3CC4C1CC1CC2C(C3)C4(N)C1 [MDT-4] | 0.65 ± 0.06 | 
3 | CC12CC3CC(C)(C1)CC(N)(C3)C2 [memantine, 1-amino-3,5-dimethyladamantane, reference compound] | 1.00 ± 0.05 | 1.00 ± 0.05 (n = 3)
4 | CC12CC3(N)CC4C5CC(CC41)CC2C5C3 (single isomer, unassigned) [MDT-22 (prep from Example 7)] | 1.18 ± 0.72 | 
5 | CC12CC3CC4C1CC1(N)CC2C(C3)C4(N)C1 [MDT-29] | 0.67 ± 0.15 | 
6 | CC12CC3CC4C1CC1(N)CC2C(C3)C4(C)C1 [MDT-23 (prep from Example 4)] | 0.83 ± 0.00 | 
7 | 2-aminotriamantane [MDT-50] | 1.07 ± 0.06 | 
8 | NCC12CC3CC4C5CC(CC41)CC2C5C3 [MDT-56] | 0.51 ± 0.09 | 
9 | CC12CC3CC4C1CC1(N)CC2C(C3)C4(C)C1 [MDT-33, 1,6-dimethyl-4-aminodiamantane] | 1.13 ± 0.09 | 
10 | NC12CC3CC4C5CC(CC41)CC2C5C3 [MDT-1] | 1.28 ± 0.10 | 
11 | NC12CC3CC4C5CC(CC41)CC2C5C3 [MDT-2] | 1.21 ± 0.00 | 
12 | NC12CC3C4CC5CC3C(C1)C(C5)C4C2 [MDT-3] | 1.55 ± 0.10 | 
13 | CC12CC3CC4C1CC1CC2C(N)(C3)C4(C)C1 (centres unmarked) [MDT-43, 1,6-dimethyl-2-aminodiamantane] | 0.92 ± 0.1 | 
14 | CC12CC3C4CC5(C)CC3C(C1)C(N)(C5)C4C2 [MDT-51, 4,9-dimethyl-1-aminodiamantane] | 0.78 ± 0.17 | 
15 | CC12CC3(N)CC4C1CC1CC2C(N)(C3)C4(C)C1 (centres unmarked) [MDT-9, 1,6-dimethyl-2,4-diaminodiamantane] | 0.87 ± 0.14 | 
16 | CN[C@H](CC(=O)O)C(=O)O [NMDA] |  | 0.80 ± 0.04 (n = 2)
17 | CC12CC3CC4C5CC(N)(CC41)CC2C5C3 [MDT-24, 1-methyl-4-aminodiamantane] | 1.47 ± 0.38 | 
18 | CC12CC3CC4C1CC1(N)CC2C(C3)C4(C)C1 [MDT-23 (prep from Example 5)] | 0.97 ± 0.05 | 
19 | CC12CC3(N)CC4C5CC(CC41)CC2C5C3 (single isomer, unassigned) [MDT-22 (prep from Example 4)] | 0.47 ± 0.03 | 
20 | Cl.NCC12CC3C4CC5CC3C(C1)C(C5)C4C2 [MDT-61] | 1.50 ± 0.40 | 
21 | 1,6-dimethyl-4-aminodiamantane mixture [MDT-7] | 2.05 ± 0.34 | 
22 | CC12CC3C4CC5(C)CC3C(C1)C(CN)(C5)C4C2 [MDT-63] | 1.18 ± 0.01 | 
23 | CC12CC3C4CC5(C)CC(C(C1)C3(N)C5)C4(N)C2 [MDT-53, 4,9-dimethyl-1,6-diaminodiamantane] | 1.12 ± 0.03 | 
24 | NC12CC3CC(CC(C3)C1)C2 [Amantadine] |  | 1.20 ± 0.45 (n = 2)
25 | 1,6-dimethyl-2-aminodiamantane mixture [MDT-6] | 1.30 ± 0.07 | 
26 | CC12CC3CC4C1CC1(CN)CC2C(C3)C4(C)C1 [MDT-65] | 1.11 ± 0.11 | 
27 | NC12CC3C4CC5(N)CC3C(C1)C(C5)C4C2 [MDT-5] | 1.05 ± 0.30 | 
28 | CC(N)C12CC3CC4C5CC(CC41)CC2C5C3 (centres unmarked) [MDT-57] | 0.87 ± 0.07 | 
